{"source": "the supplement of paper PMC4604168 (melanoma cell lines)", "note": "The list shows a part of the results. Single values are uncertain, as repeats are few or missing.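 Imaging used 1,536-well plates; nuclei positive for cleaved PARP by antibody were divided by total DNA-stained nuclei to yield the apoptosis fraction. Doses for screening kept most cells viable, and cell lines differ markedly in resting and induced cleaved-PARP levels.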"}
{"test_system": "CBRC014 (line from a melanoma biopsy)", "test": "cleaved PARP positive nuclei fraction relative to DMSO control; melanoma cells; higher = more apoptosis", "settings": "library dose: low library concentration; 72 h", "units": {"cleaved PARP positive nuclei fraction": "%"}}
{"smiles": "C=CCn1c(=O)c2cnc(Nc3ccc(N4CCN(C)CC4)cc3)nc2n1-c1cccc(C(C)(C)O)n1", "note": "+ O=S(=O)(c1ccccc1)N(CC(F)(F)F)c1ccc(C(O)(C(F)(F)F)C(F)(F)F)cc1 [T0901317] (first compound 0.02 µM, partner dose 1.4 µM)", "cleaved PARP positive nuclei fraction": 92.2}
{"smiles": "O=C(Nc1cccc(Cl)c1)Nc1ncc(CCNc2ncnc3ccsc23)s1", "note": "+ COc1cc(N2CCC(N3CCN(C)CC3)CC2)ccc1Nc1ncc(Cl)c(Nc2ccccc2S(=O)(=O)C(C)C)n1 [NVP-TAE684] (first compound 0.0008 µM, partner dose 0.08 µM)", "cleaved PARP positive nuclei fraction": 109}
{"smiles": "C[C@]1(c2nc3c(C(N)=O)cccc3[nH]2)CCCN1", "note": "[Veliparib] + COc1cc2ncnc(Nc3ccc(Oc4ccccc4)cc3)c2cc1OC [SrcI1] (first compound 1.4 µM, partner dose 2 µM)", "cleaved PARP positive nuclei fraction": 88.1}
{"smiles": "Cn1c(Nc2ccc(C(F)(F)F)cc2)nc2cc(Oc3ccnc(-c4ncc(C(F)(F)F)[nH]4)c3)ccc21", "note": "+ COc1ccc(COc2ccc(Cc3cnc(N)nc3N)cc2OC)cc1 [GW2580] (first compound 0.08 µM, partner dose 1 µM)", "cleaved PARP positive nuclei fraction": 121}
{"smiles": "COCC[n+]1c2c(n(Cc3cnccn3)c1C)C(=O)c1ccccc1C2=O", "note": "+ COc1ccc(COc2ccc(Cc3cnc(N)nc3N)cc2OC)cc1 [GW2580] (first compound 0.0004 µM, partner dose 1 µM)", "cleaved PARP positive nuclei fraction": 89.8}
{"smiles": "Cc1ccc(NC(=O)c2cccc(N(C)C)c2)cc1NC(=O)c1ccc(O)cc1", "note": "+ COC(=O)c1sccc1S(=O)(=O)Nc1ccc(Nc2ccccc2)cc1OC [GSK0660] (first compound 2 µM, partner dose 1 µM)", "cleaved PARP positive nuclei fraction": 113}
{"smiles": "COCC[n+]1c2c(n(Cc3cnccn3)c1C)C(=O)c1ccccc1C2=O", "note": "+ CC(C)CCN1c2nc(Nc3cc(F)c(O)c(F)c3)ncc2N(C)C(=O)C1C [BID1870] (first compound 0.0004 µM, partner dose 0.2 µM)", "cleaved PARP positive nuclei fraction": 94.4}
{"smiles": "CC(C)(C)c1cnc(CSc2cnc(NC(=O)C3CCNCC3)s2)o1", "note": "+ Cc1cc([N+](=O)[O-])ccc1NS(=O)(=O)c1cc(Cl)ccc1Cl [FH535] (first compound 0.01 µM, partner dose 1 µM)", "cleaved PARP positive nuclei fraction": 171}
{"smiles": "Cc1ccc(NC(=O)c2cccc(N(C)C)c2)cc1NC(=O)c1ccc(O)cc1", "note": "+ CCCCCCCCCCCC1=C(O)C(=O)C=C(O)C1=O [Embelin] (first compound 2 µM, partner dose 1.2 µM)", "cleaved PARP positive nuclei fraction": 123}
{"smiles": "Cc1ccc(NC(=O)c2cccc(N(C)C)c2)cc1NC(=O)c1ccc(O)cc1", "note": "+ COc1cc(N2CCC(N3CCN(C)CC3)CC2)ccc1Nc1ncc(Cl)c(Nc2ccccc2S(=O)(=O)C(C)C)n1 [NVP-TAE684] (first compound 2 µM, partner dose 0.08 µM)", "cleaved PARP positive nuclei fraction": 99.2}
{"smiles": "Cn1cncc1[C@@](N)(c1ccc(Cl)cc1)c1ccc2c(c1)c(-c1cccc(Cl)c1)cc(=O)n2C", "note": "[tipifarnib] + CCc1ccc(CCOc2ccc(CC3SC(=O)NC3=O)cc2)nc1 [pioglitazone] (first compound 0.01 µM, partner dose 2 µM)", "cleaved PARP positive nuclei fraction": 102}
{"smiles": "O=C(CCCCCCC(=O)Nc1ccccc1)NO", "note": "[vorinostat] + COc1cc(N2CCC(N3CCN(C)CC3)CC2)ccc1Nc1ncc(Cl)c(Nc2ccccc2S(=O)(=O)C(C)C)n1 [NVP-TAE684] (first compound 0.08 µM, partner dose 0.08 µM)", "cleaved PARP positive nuclei fraction": 84.6}
{"smiles": "O=C(Nc1cccc(Cl)c1)Nc1ncc(CCNc2ncnc3ccsc23)s1", "note": "+ COC(=O)c1sccc1S(=O)(=O)Nc1ccc(Nc2ccccc2)cc1OC [GSK0660] (first compound 0.0008 µM, partner dose 1 µM)", "cleaved PARP positive nuclei fraction": 103}
{"smiles": "C=CCn1c(=O)c2cnc(Nc3ccc(N4CCN(C)CC4)cc3)nc2n1-c1cccc(C(C)(C)O)n1", "note": "+ CC(C)CCN1c2nc(Nc3cc(F)c(O)c(F)c3)ncc2N(C)C(=O)C1C [BID1870] (first compound 0.02 µM, partner dose 0.2 µM)", "cleaved PARP positive nuclei fraction": 124}
{"smiles": "CO[C@@H]1[C@H](N(C)C(=O)c2ccccc2)C[C@H]2O[C@]1(C)n1c3ccccc3c3c4c(c5c6ccccc6n2c5c31)C(=O)NC4", "note": "[Midostaurin] + O=S(=O)(c1ccccc1)N(CC(F)(F)F)c1ccc(C(O)(C(F)(F)F)C(F)(F)F)cc1 [T0901317] (first compound 0.08 µM, partner dose 1.4 µM)", "cleaved PARP positive nuclei fraction": 117}
{"smiles": "Nc1cccc2c1CN(C1CCC(=O)NC1=O)C2=O", "note": "(configuration not stated) [lenalidomide] + COC(=O)c1sccc1S(=O)(=O)Nc1ccc(Nc2ccccc2)cc1OC [GSK0660] (first compound 1 µM, partner dose 1 µM)", "cleaved PARP positive nuclei fraction": 86.1}
{"smiles": "O=C(Nc1cccc(Cl)c1)Nc1ncc(CCNc2ncnc3ccsc23)s1", "note": "+ CCc1ccc(CCOc2ccc(CC3SC(=O)NC3=O)cc2)nc1 [pioglitazone] (first compound 0.0008 µM, partner dose 2 µM)", "cleaved PARP positive nuclei fraction": 111}
{"smiles": "COCC[n+]1c2c(n(Cc3cnccn3)c1C)C(=O)c1ccccc1C2=O", "note": "+ O=c1cc(-c2cccc3c2Sc2ccccc2S3)oc(N2CCOCC2)c1 [KU55933] (first compound 0.0004 µM, partner dose 1 µM)", "cleaved PARP positive nuclei fraction": 186}
{"smiles": "Nc1cccc2c1CN(C1CCC(=O)NC1=O)C2=O", "note": "(configuration not stated) [lenalidomide] + COc1ccc(-c2ccc3c(N4CCOCC4)nc(N4C[C@@H](C)O[C@@H](C)C4)nc3n2)cc1CO [KU0063794] (first compound 1 µM, partner dose 0.02 µM)", "cleaved PARP positive nuclei fraction": 86.3}
{"smiles": "NC(=O)Nc1cc(-c2cccc(F)c2)sc1C(=O)N[C@H]1CCCNC1", "note": "+ Cn1cc(/C=C2\\C(=O)Nc3cccnc32)c2ccccc21 [GW441756] (first compound 0.02 µM, partner dose 0.4 µM)", "cleaved PARP positive nuclei fraction": 89.5}
{"smiles": "COc1cc(Nc2ncc(F)c(Nc3ccc4c(n3)NC(=O)C(C)(C)O4)n2)cc(OC)c1OC", "note": "[Tamatinib] + COc1cc(N2CCC(N3CCN(C)CC3)CC2)ccc1Nc1ncc(Cl)c(Nc2ccccc2S(=O)(=O)C(C)C)n1 [NVP-TAE684] (first compound 0.4 µM, partner dose 0.08 µM)", "cleaved PARP positive nuclei fraction": 93.2}
{"smiles": "NC(=O)Nc1cc(-c2cccc(F)c2)sc1C(=O)N[C@H]1CCCNC1", "note": "+ CCN(CC)CCCCNc1ncc2cc(-c3cc(OC)cc(OC)c3)c(NC(=O)NC(C)(C)C)nc2n1 [PD173074] (first compound 0.02 µM, partner dose 0.1 µM)", "cleaved PARP positive nuclei fraction": 104}
{"smiles": "O=C(CCCCCCC(=O)Nc1ccccc1)NO", "note": "[vorinostat] + CCCCCCCCCCCC1=C(O)C(=O)C=C(O)C1=O [Embelin] (first compound 0.08 µM, partner dose 1.2 µM)", "cleaved PARP positive nuclei fraction": 86.6}
{"smiles": "O=C(Nc1cccc(Cl)c1)Nc1ncc(CCNc2ncnc3ccsc23)s1", "note": "+ COc1ccc(-c2ccc3c(N4CCOCC4)nc(N4C[C@@H](C)O[C@@H](C)C4)nc3n2)cc1CO [KU0063794] (first compound 0.0008 µM, partner dose 0.02 µM)", "cleaved PARP positive nuclei fraction": 104}
{"smiles": "Cc1nc(Nc2ncc(C(=O)Nc3c(C)cccc3Cl)s2)cc(N2CCN(CCO)CC2)n1", "note": "[dasatanib] + CCN(CC)CCCCNc1ncc2cc(-c3cc(OC)cc(OC)c3)c(NC(=O)NC(C)(C)C)nc2n1 [PD173074] (first compound 0.004 µM, partner dose 0.1 µM)", "cleaved PARP positive nuclei fraction": 101}
{"smiles": "CC1(C)NC(=O)N(c2ccc([N+](=O)[O-])c(C(F)(F)F)c2)C1=O", "note": "[nilutamide] + COc1ccc(COc2ccc(Cc3cnc(N)nc3N)cc2OC)cc1 [GW2580] (first compound 1 µM, partner dose 1 µM)", "cleaved PARP positive nuclei fraction": 68.1}
{"smiles": "COCC[n+]1c2c(n(Cc3cnccn3)c1C)C(=O)c1ccccc1C2=O", "note": "+ CCc1ccc(CCOc2ccc(CC3SC(=O)NC3=O)cc2)nc1 [pioglitazone] (first compound 0.0004 µM, partner dose 2 µM)", "cleaved PARP positive nuclei fraction": 90.2}
{"smiles": "O=C(CCCCCCC(=O)Nc1ccccc1)NO", "note": "[vorinostat] + COc1ccc(-c2ccc3c(N4CCOCC4)nc(N4C[C@@H](C)O[C@@H](C)C4)nc3n2)cc1CO [KU0063794] (first compound 0.08 µM, partner dose 0.02 µM)", "cleaved PARP positive nuclei fraction": 97.4}
{"smiles": "COc1cc(Nc2ncc(F)c(Nc3ccc4c(n3)NC(=O)C(C)(C)O4)n2)cc(OC)c1OC", "note": "[Tamatinib] + O=S(=O)(c1ccccc1)N(CC(F)(F)F)c1ccc(C(O)(C(F)(F)F)C(F)(F)F)cc1 [T0901317] (first compound 0.4 µM, partner dose 1.4 µM)", "cleaved PARP positive nuclei fraction": 102}
{"smiles": "NC(=O)Nc1cc(-c2cccc(F)c2)sc1C(=O)N[C@H]1CCCNC1", "note": "+ O=S(=O)(c1ccccc1)N(CC(F)(F)F)c1ccc(C(O)(C(F)(F)F)C(F)(F)F)cc1 [T0901317] (first compound 0.02 µM, partner dose 1.4 µM)", "cleaved PARP positive nuclei fraction": 96.7}
{"smiles": "Cn1nnc2c(C(N)=O)ncn2c1=O", "note": "[temozolomide] + COc1ccc(-c2ccc3c(N4CCOCC4)nc(N4C[C@@H](C)O[C@@H](C)C4)nc3n2)cc1CO [KU0063794] (first compound 2 µM, partner dose 0.02 µM)", "cleaved PARP positive nuclei fraction": 101}
{"smiles": "Nc1cccc2c1CN(C1CCC(=O)NC1=O)C2=O", "note": "(configuration not stated) [lenalidomide] + c1cc(-c2cnn3cc(-c4ccc(OCCN5CCCCC5)cc4)cnc23)ccn1 [Dorsomorphin] (first compound 1 µM, partner dose 0.4 µM)", "cleaved PARP positive nuclei fraction": 94.5}
